For at least one entry, the source does not settle the construct or the ends of the probe.
System: HosA
Test: EMSA
Details: no p-HBA, 0.1 uM DNA, 0-0.5 uM HosA; recombinant protein

TACTGAGCCATGTATCCAGGTCATTGCGTTCGTATACGAACAGTAGCTCTGACAGTTCCA / GTCAGAGCTACTGTTCGTATACGAAC [irregular dsDNA (60 nt HosA-F / 26 nt HosA-R)]
binding result: binds

Source: paper PMC10992608
